Reference: article PMC10652021
Results are given in words; binding and its absence hold for the method and conditions named. In cells and extracts the contact can be indirect. Some results given as binding are weak or reduced against the parent protein; the word gives no strength.

By UniProt entry, the sequences of proteins in these tests, tags left out.
UniProt P38432: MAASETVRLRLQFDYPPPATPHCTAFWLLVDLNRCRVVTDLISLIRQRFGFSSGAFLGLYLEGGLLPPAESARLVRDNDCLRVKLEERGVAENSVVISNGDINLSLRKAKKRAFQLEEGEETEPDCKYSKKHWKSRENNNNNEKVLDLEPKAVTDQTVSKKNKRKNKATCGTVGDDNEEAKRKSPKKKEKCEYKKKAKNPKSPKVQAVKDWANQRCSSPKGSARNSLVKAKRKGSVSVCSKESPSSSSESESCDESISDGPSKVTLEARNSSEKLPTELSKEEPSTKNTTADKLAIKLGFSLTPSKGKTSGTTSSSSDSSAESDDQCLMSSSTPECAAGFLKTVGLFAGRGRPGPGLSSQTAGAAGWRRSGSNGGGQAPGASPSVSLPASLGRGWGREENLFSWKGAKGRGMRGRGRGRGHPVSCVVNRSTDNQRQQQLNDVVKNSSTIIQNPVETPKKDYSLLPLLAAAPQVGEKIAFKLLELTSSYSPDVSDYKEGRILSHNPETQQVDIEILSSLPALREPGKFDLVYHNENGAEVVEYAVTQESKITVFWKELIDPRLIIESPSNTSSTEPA
UniProt Q16637: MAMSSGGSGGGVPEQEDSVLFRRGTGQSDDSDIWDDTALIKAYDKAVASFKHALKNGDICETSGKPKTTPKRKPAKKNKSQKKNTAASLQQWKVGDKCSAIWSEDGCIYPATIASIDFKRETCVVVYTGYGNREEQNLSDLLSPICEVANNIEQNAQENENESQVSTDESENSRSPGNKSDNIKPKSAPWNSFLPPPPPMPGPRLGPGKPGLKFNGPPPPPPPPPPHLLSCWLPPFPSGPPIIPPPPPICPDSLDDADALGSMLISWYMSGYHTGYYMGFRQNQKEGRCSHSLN

T1: Fibrillarin (human (endogenous in MRC5-SV)) (UniProt P22087)
T1 sequence: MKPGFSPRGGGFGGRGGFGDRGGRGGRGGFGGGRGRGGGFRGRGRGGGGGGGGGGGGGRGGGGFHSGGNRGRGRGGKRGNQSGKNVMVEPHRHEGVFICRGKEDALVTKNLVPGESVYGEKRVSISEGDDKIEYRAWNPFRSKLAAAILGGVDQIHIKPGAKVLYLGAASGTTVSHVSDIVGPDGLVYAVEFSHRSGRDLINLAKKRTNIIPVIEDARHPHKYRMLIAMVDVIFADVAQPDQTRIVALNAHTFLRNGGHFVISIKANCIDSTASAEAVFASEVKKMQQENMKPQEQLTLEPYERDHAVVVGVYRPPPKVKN


Key:
[1] = target: Coilin (human (endogenous in MRC5-SV)) (UniProt P38432); experiment: condition: only after UV-C irradiation, during nucleolar reorganization, wild-type cells; proximity ligation; Duolink PLA of SMN and Coilin on fixed wild-type cells at different times after UV-C irradiation (damage-induced nucleolar reorganization)
[2] = target: T1, Fibrillarin (human (endogenous in MRC5-SV)); experiment: condition: only in Coilin-depleted cells (siCoilin pool); proximity ligation; Duolink PLA of SMN and FBL on fixed cells depleted of Coilin (siCoilin pool), before and at different times after UV-C
[3] = target: T1, Fibrillarin (human (endogenous in MRC5-SV)); experiment: proximity ligation; Duolink PLA on fixed, permeabilised wild-type cells with primary antibodies against the two endogenous proteins; no UV and different times after 16 J/m2 UV-C; cells transfected with siMock, siFBL or siPRMT1 pools
GST-SMN = GST-SMN (UniProt Q16637); experiment: pull-down; GST pull-down: GST-SMN (or GST alone, or SMN TUDOR domain mutants) as bait, FBL from cell extracts, untreated or UV-treated at different time points; FBL found by blot; only the target purified

| binding (GST-SMN) | Molecule | binding [1] | binding [2] | binding [3] |
| --- | --- | --- | --- | --- |
|  | Survival of Motor Neuron (from UniProt Q16637 1-294) | no binding | no binding | binds |
| binds | Fibrillarin (protein, UniProt P22087 1-321) MKPGFSPRGGGFGGRGGFGDRGGRGGRGGFGGGRGRGGGFRGRGRGGGGGGGGGGGGGRGGGGFHSGGNRGRGRGGKRGNQSGKNVMVEPHRHEGVFICRGKEDALVTKNLVPGESVYGEKRVSISEGDDKIEYRAWNPFRSKLAAAILGGVDQIHIKPGAKVLYLGAASGTTVSHVSDIVGPDGLVYAVEFSHRSGRDLINLAKKRTNIIPVIEDARHPHKYRMLIAMVDVIFADVAQPDQTRIVALNAHTFLRNGGHFVISIKANCIDSTASAEAVFASEVKKMQQENMKPQEQLTLEPYERDHAVVVGVYRPPPKVKN |  |  |  |
